PubChem BioAssay AID248 (DTP/NCI, 2004)
The list does not hold the whole screen: it is rich in T/C values a quarter to a half above the control, in often repeated tests (any T/C) and in doses without a T/C. Other doses and runs of a compound stand elsewhere. T/C: endpoint of the treated group in % of that of the vehicle group. Some doses have a count of surviving animals in place of a T/C: the source files T/C as zero there, which appears to mark a toxic dose or a test without result, not a measured value. Some doses without a T/C left all or most animals alive at the check, yet need not have been tolerated: survival well below the control is almost never listed, so the zero probably covers shortened survival too. Survivors were counted at the toxicity check, usually on the fifth day, unless a day is given; later deaths do not show. Schedule codes are those of the source, read here as Q, the interval in days (D) or hours (H), X, the number of doses. Some molecules as drawn cover several salts, stereoisomers or complexes of the source; a dose is that of the sample tested. For survival time, this PubChem deposit counts one and a half times the control or more as active, and values a quarter to a half above the control carry no call in these data; other NCI protocols may use other cut-offs. Some doses were run more than once; their values stand side by side, smallest first.

Tested on: L1210 leukemia ip in BDF1 mice, survival T/C
Test: NCI In Vivo Anticancer Drug Screen. Data for tumor model L1210 Leukemia (intraperitoneal) in B6D2F1 (BDF1) mice
Conditions: T/C endpoint: mean survival time, higher T/C = longer survival
[1] = dose: 200.0 mg/kg/injection, schedule: Q04DX002 (ip), vehicle: Klucel (hydroxypropylcellulose) (HPC)
[2] = dose: 200.0 mg/kg/injection, schedule: Q04DX003 (ip), vehicle: saline with Tween-80
[3] = dose: 400.0 mg/kg/injection, schedule: Q04DX003 (ip), vehicle: saline with Tween-80
[4] = dose: 100.0 mg/kg/injection, schedule: Q04DX003 (ip), vehicle: Klucel (hydroxypropylcellulose) (HPC)
[5] = dose: 200.0 mg/kg/injection, schedule: Q04DX003 (ip), vehicle: Klucel (hydroxypropylcellulose) (HPC)
[6] = dose: 400.0 mg/kg/injection, schedule: Q04DX003 (ip), vehicle: Klucel (hydroxypropylcellulose) (HPC)
[7] = dose: 100.0 mg/kg/injection, schedule: Q04DX002 (ip), vehicle: Klucel (hydroxypropylcellulose) (HPC)
[8] = dose: 100.0 mg/kg/injection, schedule: Q01DX001 (ip), vehicle: saline
[9] = dose: 200.0 mg/kg/injection, schedule: Q01DX001 (ip), vehicle: saline
[10] = dose: 400.0 mg/kg/injection, schedule: Q04DX002 (ip), vehicle: Klucel (hydroxypropylcellulose) (HPC)
[11] = dose: 200.0 mg/kg/injection, schedule: Q01DX001 (ip), vehicle: Klucel (hydroxypropylcellulose) (HPC)
[12] = dose: 400.0 mg/kg/injection, schedule: Q01DX001 (ip), vehicle: Klucel (hydroxypropylcellulose) (HPC)
[13] = dose: 400.0 mg/kg/injection, schedule: Q04DX002 (ip), vehicle: saline with Tween-80
[14] = dose: 50.0 mg/kg/injection, schedule: Q01DX009 (ip), vehicle: saline
[15] = dose: 150.0 mg/kg/injection, schedule: Q01DX001 (ip), vehicle: saline
[16] = dose: 300.0 mg/kg/injection, schedule: Q01DX001 (ip), vehicle: saline

In the case of `CCCN(CCC)CCNCC(Cc1ccccc1)c1ccccc1` (stereo not given), the survivor count [1] is reported as 0 of 3.

With `CNC(=O)c1nc(C)c(C)[nH]c1=O` the survivor count (dose: 400.0 mg/kg/injection, schedule: Q04DX003 (ip), vehicle: water) was 0 of 6.

With `CC[CH2][Pb]([CH2]CC)([CH2]CC)[O]C(=O)C1CCCCC1` the survivor count (dose: 12.5 mg/kg/injection, schedule: Q04DX003 (ip), vehicle: saline with Tween-80) was 3 of 6, the survivor count (dose: 25.0 mg/kg/injection, schedule: Q04DX003 (ip), vehicle: saline with Tween-80) was 0 of 6 and the survivor count (dose: 50.0 mg/kg/injection, schedule: Q04DX003 (ip), vehicle: saline with Tween-80) was 1 of 6. For the same compound, the survivor count (dose: 100.0 mg/kg/injection, schedule: Q04DX003 (ip), vehicle: saline with Tween-80) was 0 of 6, the survivor count [2] was 0 of 6 and the survivor count [3] was 0 of 6.

In the case of `CN=Cc1ccccc1`, the survivor count [2] is reported as 6 of 6.

For `O=C(CCc1ccc(O)cc1)N/N=C/c1ccc2c(c1)OCO2`, the survivor count (dose: 100.0 mg/kg/injection, schedule: Q01DX009 (ip), vehicle: saline with Tween-80) was 6 of 6.

In the case of `Oc1c(Cl)cc(N=Cc2ccc(N(CCCCl)CCCCl)cc2)cc1Cl`, the survivor count [4] is reported as 6 of 6, the survivor count [5] is reported as 6 of 6 and the survivor count [6] is reported as 6 of 6.

With `c1cc[c]([Pb]([c]2ccccc2)([c]2ccccc2)[c]2ccccc2)cc1` the survivor count [7] was 3 of 3.

In the case of `COc1ccc2c(=O)c3c(O)cc(OC)cc3oc2c1`, the survivor count [8] is reported as 6 of 6 and the survivor count [9] is reported as 6 of 6.

With `CCOC(=O)CNc1ccc(Cl)cc1` the T/C [7] was 135 % of control, the survivor count [1] was 2 of 3 and the survivor count [10] was 0 of 3.

With `COc1ccc([N+](=O)[O-])cc1CNCCBr` the T/C (dose: 100.0 mg/kg/injection, schedule: Q01DX001 (ip), vehicle: Klucel (hydroxypropylcellulose) (HPC)) was 125 % of control, the survivor count [11] was 0 of 6 and the survivor count [12] was 0 of 6.

`COc1cc(C=O)ccc1OC(=O)Nc1cccc(C(C)=O)c1` was tested, and the survivor count (dose: 400.0 mg/kg/injection, schedule: Q01DX009 (ip), vehicle: Klucel (hydroxypropylcellulose) (HPC)) was 1 of 6.

With `N=C(N)S/C=C/C(=O)O` the survivor count (dose: 200.0 mg/kg/injection, schedule: Q04DX002 (ip), vehicle: saline with Tween-80) was 0 of 3 and the survivor count [13] was 0 of 3.

In the case of `CN(C)c1ccc(-c2cc(C(=O)O)c3cc4ccccc4cc3n2)cc1`, the survivor count [13] is reported as 2 of 3.

`NCC1CCNCC1` was tested, and the T/C (dose: 100.0 mg/kg/injection, schedule: Q04DX002 (ip), vehicle: saline) was 128 % of control and the survivor count (dose: 200.0 mg/kg/injection, schedule: Q04DX002 (ip), vehicle: saline) was 3 of 3.

In the case of `NC(N)=NC(N)=Nc1ccc(Cl)c(Cl)c1`, the survivor count (dose: 75.0 mg/kg/injection, schedule: Q01DX009 (ip), vehicle: Klucel (hydroxypropylcellulose) (HPC)) is reported as 2 of 6, the survivor count (dose: 150.0 mg/kg/injection, schedule: Q01DX009 (ip), vehicle: Klucel (hydroxypropylcellulose) (HPC)) is reported as 0 of 6 and the survivor count [2] is reported as 5 of 6. For the same compound, the survivor count (dose: 300.0 mg/kg/injection, schedule: Q01DX009 (ip), vehicle: Klucel (hydroxypropylcellulose) (HPC)) was 0 of 6 and the survivor count [3] was 0 of 6.

With `O=C(O)COc1ccccc1-c1ccccc1Cl` the survivor count [6] was 0 of 6.

With `[Cl][Al]([Cl])[Cl]` the survivor count (dose: 25.0 mg/kg/injection, schedule: Q01DX009 (ip), vehicle: saline) was 6 of 6, the survivor count [14] was 3 of 6 and the survivor count (dose: 100.0 mg/kg/injection, schedule: Q01DX009 (ip), vehicle: saline) was 1 of 6. For the same compound, the survivor count (dose: 100.0 mg/kg/injection, schedule: Q04DX003 (ip), vehicle: saline) was 5 of 6, the survivor count [9] was 6 of 6 and the survivor count (dose: 200.0 mg/kg/injection, schedule: Q01DX009 (ip), vehicle: saline) was 1 of 6. For the same compound, the survivor count (dose: 400.0 mg/kg/injection, schedule: Q01DX001 (ip), vehicle: saline) was 3 of 6 and the survivor count (dose: 400.0 mg/kg/injection, schedule: Q04DX003 (ip), vehicle: saline) was 1 of 6.

In the case of `NC(Cn1cc(N(CCCl)CCCl)c(=O)[nH]c1=O)C(=O)O` (stereo not given), the T/C (dose: 10.0 mg/kg/injection, schedule: Q01DX009 (ip), vehicle: water) is reported as 128 % of control, the T/C (dose: 14.0 mg/kg/injection, schedule: Q01DX009 (ip), vehicle: saline) is reported as 130 % of control and the T/C (dose: 14.0 mg/kg/injection, schedule: Q01DX009 (ip), vehicle: water) is reported as 127 % of control. The T/C (dose: 20.0 mg/kg/injection, schedule: Q01DX009 (ip), vehicle: water) was 130 % of control, the T/C (dose: 22.0 mg/kg/injection, schedule: Q01DX009 (ip), vehicle: saline) was 128 % of control and the T/C (dose: 27.0 mg/kg/injection, schedule: Q01DX009 (ip), vehicle: saline) was 136 % of control. The T/C (dose: 30.0 mg/kg/injection, schedule: Q01DX009 (ip), vehicle: water) was 136 % of control, the T/C (dose: 45.0 mg/kg/injection, schedule: Q01DX001 (ip), vehicle: saline) was 132 % of control and the T/C (dose: 50.0 mg/kg/injection, schedule: Q01DX001 (ip), vehicle: saline) was 125 % of control. The survivor count [14] was 5 of 6, the survivor count (dose: 60.0 mg/kg/injection, schedule: Q01DX009 (ip), vehicle: water) was 3 of 6 and the T/C (dose: 66.6 mg/kg/injection, schedule: Q01DX001 (ip), vehicle: saline) was 143 % of control. For the same compound, the T/C (dose: 75.0 mg/kg/injection, schedule: Q01DX001 (ip), vehicle: saline) was 129 % of control, the T/C [8] was 135 and 137 % of control and the survivor count (dose: 120.0 mg/kg/injection, schedule: Q01DX009 (ip), vehicle: water) was 0 of 6. The T/C [15] was 137 % of control, the survivor count [15] was 1 of 4 and the survivor count [9] was 0 of 4. The survivor count [16] was 0 of 4.

For `CCC(CC)(C(=O)O)C(=O)O`, the survivor count [5] was 6 of 6 and the survivor count [6] was 2 of 6.

With `CCC1(CC)C(=O)NC(=NCCCC(N)C(=O)O)NC1=O` (stereo not given) the survivor count (dose: 300.0 mg/kg/injection, schedule: Q01DX001 (ip), vehicle: carboxymethylcellulose (CMC)) was 1 of 6.

For `CN(C)C(=S)SSSC(=S)N(C)C`, the survivor count [1] was 3 of 3 and the survivor count [10] was 2 of 3.

`CCN(CC)CCCC(C)Nc1ncnc(N)c1N` (stereo not given) was tested, and the survivor count [4] was 3 of 6, the survivor count [5] was 0 of 6 and the survivor count [6] was 0 of 6.

For `CC1=CC(=O)C(CO)=CC1=O`, the survivor count (dose: 12.0 mg/kg/injection, schedule: Q01DX009 (ip), vehicle: other) was 1 of 3, the survivor count (dose: 12.0 mg/kg/injection, schedule: Q04DX002 (ip), vehicle: other) was 3 of 3 and the survivor count (dose: 25.0 mg/kg/injection, schedule: Q04DX002 (ip), vehicle: other) was 0 of 3. The survivor count (dose: 50.0 mg/kg/injection, schedule: Q04DX002 (ip), vehicle: other) was 0 of 3, the survivor count (dose: 100.0 mg/kg/injection, schedule: Q04DX002 (ip), vehicle: other) was 0 of 3 and the survivor count (dose: 200.0 mg/kg/injection, schedule: Q04DX002 (ip), vehicle: other) was 0 of 3. The survivor count (dose: 400.0 mg/kg/injection, schedule: Q04DX002 (ip), vehicle: other) was 0 of 3.

For `Nc1nc2[nH]cnc(=S)c2[nH]1`, the survivor count [15] was 0 of 6 and the survivor count [16] was 2 of 6.

For `Cc1cc2cccc(CN)c2cc1C`, the survivor count [11] was 3 of 6 and the survivor count [12] was 0 of 6.
